Changes are numbered by the printed parent chain. No constants are given. Whether binding was seen depends on the method and setting. Binding seen in cells or lysates may run through a third protein. Some binding calls cover weakened binding; strength is not graded here. For part of these data: Where a sequence is shown, tags or fusion partners need not be part of it.

Drawing on paper PMC13187025, this text covers binding for two molecules.

The target of test [1] is T1, DFN-IRS2 (endogenous IRS2 with mNeonGreen and FLAG tags at the N-terminus) (human (endogenous in SUM-159)) (UniProt Q9Y4H2).
T1 sequence: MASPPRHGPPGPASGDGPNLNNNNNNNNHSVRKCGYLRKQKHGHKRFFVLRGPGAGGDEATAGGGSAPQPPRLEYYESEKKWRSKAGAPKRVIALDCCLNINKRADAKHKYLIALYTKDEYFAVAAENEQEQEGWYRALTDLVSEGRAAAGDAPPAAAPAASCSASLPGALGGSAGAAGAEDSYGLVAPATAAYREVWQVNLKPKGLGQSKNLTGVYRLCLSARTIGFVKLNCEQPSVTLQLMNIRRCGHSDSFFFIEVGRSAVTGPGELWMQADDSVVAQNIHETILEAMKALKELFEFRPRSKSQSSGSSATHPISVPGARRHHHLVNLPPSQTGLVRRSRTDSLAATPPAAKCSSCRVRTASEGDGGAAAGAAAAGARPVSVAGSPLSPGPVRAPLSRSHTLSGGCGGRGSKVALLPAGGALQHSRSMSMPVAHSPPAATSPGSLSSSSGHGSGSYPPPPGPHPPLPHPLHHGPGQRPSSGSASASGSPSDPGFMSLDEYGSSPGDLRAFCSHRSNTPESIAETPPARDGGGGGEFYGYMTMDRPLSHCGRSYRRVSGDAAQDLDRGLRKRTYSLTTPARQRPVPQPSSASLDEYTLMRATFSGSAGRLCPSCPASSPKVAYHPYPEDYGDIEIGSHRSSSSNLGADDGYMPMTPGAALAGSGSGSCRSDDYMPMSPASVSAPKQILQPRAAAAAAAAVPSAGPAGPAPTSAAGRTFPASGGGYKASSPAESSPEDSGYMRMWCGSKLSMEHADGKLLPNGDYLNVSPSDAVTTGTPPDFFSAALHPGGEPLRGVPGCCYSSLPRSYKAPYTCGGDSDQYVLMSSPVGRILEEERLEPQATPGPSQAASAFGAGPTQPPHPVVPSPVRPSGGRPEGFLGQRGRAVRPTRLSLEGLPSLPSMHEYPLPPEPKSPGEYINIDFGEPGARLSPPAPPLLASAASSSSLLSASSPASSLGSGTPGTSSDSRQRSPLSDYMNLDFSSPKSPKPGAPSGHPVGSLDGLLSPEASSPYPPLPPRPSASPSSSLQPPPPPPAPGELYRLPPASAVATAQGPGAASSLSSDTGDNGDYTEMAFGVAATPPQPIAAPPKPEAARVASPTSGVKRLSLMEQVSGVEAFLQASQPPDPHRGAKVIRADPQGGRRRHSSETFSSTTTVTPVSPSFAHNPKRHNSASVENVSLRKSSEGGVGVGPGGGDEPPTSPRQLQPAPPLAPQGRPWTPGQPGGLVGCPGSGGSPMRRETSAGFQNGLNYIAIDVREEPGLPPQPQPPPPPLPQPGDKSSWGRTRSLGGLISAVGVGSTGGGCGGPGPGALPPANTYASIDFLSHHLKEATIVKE
Kind of test: proximity ligation; Duolink In Situ Red kit with mouse anti-FLAG and rabbit anti-PLK1 on fixed, permeabilized SUM-159 cells; nocodazole 50 ng/ml for 20 h, released 30 min.

For test [2], the target named is T2, IRS2-S2A (S731A and S736A) with a C-terminal FLAG tag (human) (UniProt Q9Y4H2).
T2 sequence: T1 sequence with S731A, S736A
The test is described as above.

The target in test [3] is T3, IRS2-WT with a C-terminal FLAG tag (human) (UniProt Q9Y4H2).
T3 sequence: T1 sequence
The test is described as above.

Test [4] addresses T2, IRS2-S2A (S731A and S736A) with a C-terminal FLAG tag (human). Nature of the test: co-IP; IRS2 constructs immunoprecipitated (FLAG-specific antibodies in Fig. 5C) from extracts of cells synchronized by thymidine/release (T/R; G2/M) or thymidine/release/nocodazole and shake-off (T/R/N; M); blotted for PLK1.
For test [5], the target named is T3, IRS2-WT with a C-terminal FLAG tag (human). The description is as above.
In test [6] the target is Polo like kinase 1 (PLK1), endogenous (human (endogenous in SUM-159 and MDA-MB-231)) (UniProt P53350). Kind of test: co-IP; endogenous proteins; extracts of mitotic SUM-159 and MDA-MB-231 cells (nocodazole 90 ng/ml, 16 h) immunoprecipitated with PLK1-specific antibodies; also SUM-159 cells synchronized by thymidine/release/nocodazole, and with the PLK1 inhibitor BI6727.

Take “Polo like kinase 1 (PLK1), endogenous (from UniProt P53350 1-603) (enzyme)”: the binding entry in test [1] was “binds”; in test [2], “binds weakly”; in test [3], “binds”; in test [4], “binds weakly”; in test [5] it was “binds”.

B1: Insulin receptor substrate 2 (IRS2), endogenous (protein, UniProt Q9Y4H2 1-1338)
chain: T1 sequence
Consider B1, for which, in test [6], the binding result is on record as “binds”.
